± gives the standard deviation of the averaged measurements. Most values lie at the floor of the assay. Slopes are relative: functional sequences can read slightly below zero.
Test system: Saccharomyces cerevisiae PS128 hsf1 delta, HSF1(1-493) fusion
Assay: growth estimate (transactivation domain function in HSF1 fusion, heat-shock survival) (a.u. (slope of normalised read count over time)); higher = stronger growth at 37°C, i.e. more transactivation activity
Conditions: library: random library

| Substance | growth estimate |
| --- | --- |
| PPSTMRKALHLPGGI | < -0.25 |
| RTCAFTALKRWHHCNLG | < -0.25 |
| RRPSYLRSYTRTRTTGLKVD | < -0.25 |
| TKSTTGGAIPRVARSSS | < -0.25 |
| ALGRDVRTL | < -0.25 |
| VWR | < -0.25 |
| GRGYYDVLRAGGVGVPLSAG | < -0.25 |
| RSHRRVSPLMQY | < -0.25 |
| RGFIAPT | < -0.25 |
| RNEKRNVRAPVYAVPHH | < -0.25 |
| KVFIYTEHAYAL | < -0.25 |
| GKTLHVRRCRAALCDHFLPV | < -0.25 |
| DVRYAMHATVGTLLG | < -0.25 |
| EFCCSPGTHSLPGLYRRTCM | < -0.25 |
| VLIYDCS | < -0.25 |
| RELLRSVRKSRHFKSVFEPS | < -0.25 |
| RVMLTAGTRTG | < -0.25 |
| PSTRRPLGR | < -0.25 |
| YVRPPFMWMPRAYTP | < -0.25 |
| KDWA | < -0.25 |
| STNGEG | < -0.25 |
| APLSAPAGCGLRQTLNGRTV | < -0.25 |
| LREDSGANLAGLRLFCLLAT | < -0.25 |
| FGSVDPPNLPLFSLGNKHPG | < -0.25 |

| Substance | growth estimate |
| --- | --- |
| RRFTVRL | < -0.25 |
| VIGDWLLQFSKVKLAAHRPW | < -0.25 |
| YVQPLSTVPVMVHNSLRGSA | < -0.25 |
| TIGVEWGGHQETLMPVQFWL | -0.0171 |
| GVASDASDTCVWYSGELTQR | < -0.25 |
| VPLHIRCYYALRFYLTIKCS | < -0.25 |
| FLGTLVLAPRGIE | < -0.25 |
| SAGCLVGSCTLESDQLGPGL | < -0.25 |
| GHGSRGAQTPVALHLTRHLT | < -0.25 |
| SFPDYIG | -0.245 |
| LMCFERLICVEPLRSNDTGP | < -0.25 |
| ALS | < -0.25 |
| IAVDPNVLGTDKSSSIATHS | < -0.25 |
| VQGSNCGHSVDKPLGPKTLP | < -0.25 |
| VKGPMDPRL | < -0.25 |
| RNL | -0.248 ± 0.0039 |
| QKGARMIWRAVVGRPYKFDC | < -0.25 |
| RMNANS | < -0.25 |
| CARRGLHVAFL | < -0.25 |
| MAFVWS | < -0.25 |
| HPIWLSHGRQEGVTVR | < -0.25 |
| KVTEIGHQVTFPTR | < -0.25 |
| RTSDHSADVAICLCLGPSTW | < -0.25 |
| WPVGFAPHGLIDSE | < -0.25 |

| Substance | growth estimate |
| --- | --- |
| YGRRSVPEVQVAGT | < -0.25 |
| ALRLHCGGEPGPRRGEMHSE | < -0.25 |
| CGFLACLRTFK | < -0.25 |
| FAGLNMIYLIREADPARWAR | < -0.25 |
| STGLVLVG | < -0.25 |
| ETRSEDLRGHILPSKNTTWS | < -0.25 |
| VMTAQEGLVEGSIGWSIPNS | -0.231 |
| AHTWKSMLPRSRSLSNQTLV | < -0.25 |
| PADGEISATQRLEMLETYTG | < -0.25 |
| ESAHLTLGIEGDYHLPDVEA | < -0.25 |
| DVVRY | < -0.25 |
| RIMPFVF | < -0.25 |
| YRCYINRGRIQNRCG | < -0.25 |
| LLPTVVCDELLALARHSLP | < -0.25 |
| RWERVRHLGRPHGLHTML | < -0.25 |
| GTCWVVKGRPRRLERSRPLY | < -0.25 |
| RTAFSARRGQGHRCAVSMIE | < -0.25 |
| PSAAHAATRKLPL | < -0.25 |
| GPIQTKFYSFG | < -0.25 |
| TEPFLYIGQDNGHWCAGAAW | < -0.25 |
| NRMAV | < -0.25 |
| SNLDLACFGCERVRRPMA | < -0.25 |
| LVINSKNVRLNRGYARSEGL | < -0.25 |
| NRWRCDLLADTLGASMYFRC | < -0.25 |

Part of the list above, field by field.
QKGARMIWRAVVGRPYKFDC
  growth estimate: < -0.25
RMNANS
  growth estimate: < -0.25

(continued)

| Substance | growth estimate |
| --- | --- |
| GKPPQA | < -0.25 |
| SGGSL | < -0.25 |
| TGRLYNLLVLRLP | < -0.25 |
| ASRHFRPTCRANRSGNQLRR | -0.245 |
| CFEIGTKSVRVGV | < -0.25 |
| GSGLAFRSGNDEHEAVRL | -0.241 |
| CLRVSESELERVEVRDFGLE | < -0.25 |
| LAGMSK | < -0.25 |
| PRSVRNICGTRTRQLLKCKS | < -0.25 |
| PKIYRPTRCRRGRLRSMRGY | -0.245 |
| QQENEGRHSEFIYIFAPMKF | < -0.25 |
| QKSLS | < -0.25 |
| WRSVETYGRNRAAATTVQHS | < -0.25 |
| SCIRRASDNGERTDFGTCWT | < -0.25 |
| RGLQYLLIAKRGHLRLRHVC | < -0.25 |
| RSRTSKEDSRSVR | < -0.25 |
| RNTGAGQERASKGLTLRERL | < -0.25 |
| LSVAINSKTITGAGVLRLRG | < -0.25 |
| RFVFA | < -0.25 |
| HMD | < -0.25 |
| EYASERRSSSECGDRRQVPA | < -0.25 |
| GNWKT | < -0.25 |
| LPIDRDTLID | < -0.25 |
| TKSEMSCLLDAVVVEFVFVM | < -0.25 |

Quoted at random: 5 entries already listed

| Substance | growth estimate |
| --- | --- |
| GKPPQA | < -0.25 |
| GSGLAFRSGNDEHEAVRL | -0.241 |
| SGGSL | < -0.25 |
| TGRLYNLLVLRLP | < -0.25 |
| TKSEMSCLLDAVVVEFVFVM | < -0.25 |

Further records follow.

| Substance | growth estimate |
| --- | --- |
| VTRRSSRQSSVQRVEKKCIT | < -0.25 |
| ARTWIGTVRKTG | < -0.25 |
| FHSMGGAHPGAEDYHTDSIG | < -0.25 |
| VMSQDYGTR | < -0.25 |
| IISQRGSV | -0.211 |
| LSAGGSPSDLVSMISLSWGS | -0.108 |
| TNCNVGD | < -0.25 |
| RGGINITRRCSKILKVSRAL | < -0.25 |
| LLTL | < -0.25 |
| LGLLVCVKEPNFISLGRGSI | < -0.25 |
| KRLNGMFLRTVNALDTSSRQ | < -0.25 |
| TTRPRECSSDWVPVHGPAAA | < -0.25 |
| YRWKYHWRLMQCNDRRTGGS | < -0.25 |
| WRDSYVRVPHYINSVLDAQR | < -0.25 |
| SVWAKRERARRATYYVVRRI | -0.214 |
| YWANWSEVSPIFWWEHPGGL | -0.109 |
| LVRGMATQWYVFGVVGPL | < -0.25 |
| HSRAPFAVAGSDLSKNPLLA | < -0.25 |
| STGKHSNYRDLYS | < -0.25 |
| SRSRSRVRYANSQGQ | < -0.25 |
| VKASVVVRARRIPVDPTKAQ | < -0.25 |
| NTESPQGRASLARAESWQFN | < -0.25 |
| PGKLCISEYRLSLFQVLAER | < -0.25 |
| LGTP | < -0.25 |

| Substance | growth estimate |
| --- | --- |
| IQLPRYQGMGLSLPRTHTYT | < -0.25 |
| ITPSAT | < -0.25 |
| CPGKLFFRTDDNTGGGCRES | < -0.25 |
| SIRSTRNGAYRPRPDLDMNR | < -0.25 |
| ACRACIGLLTYFGQYTRRMA | < -0.25 |
| NMARGHDAG | < -0.25 |
| ASSRHK | < -0.25 |
| KIYAIRSSAYTHFKESYSEA | < -0.25 |
| SQRLVQECSFGHCLPLRSKP | < -0.25 |
| ATEYGCWAVYMGRSQRREWD | -0.112 |
| TVFESDSTVMKRRT | < -0.25 |
| DNEVKF | < -0.25 |
| SCNIGGRSREASNE | < -0.25 |
| LKSANRVYTAQTPVHAIMKQ | < -0.25 |
| PSRDRAAVEP | -0.235 |
| SAICTLAWRW | < -0.25 |
| QEHFWRSLRLA | < -0.25 |
| NDTPRRFVEALSHSRRRVSW | < -0.25 |
| AQQSCLEPSPGFRNQLDGQF | < -0.25 |
| SEQKLDVCYSLRLLRRRVRL | < -0.25 |
| LTPVIFSPWPGASVCHLKFR | < -0.25 |
| SEWGNHRKVLRA | < -0.25 |

— the supplement of paper PMC5949888
